This note sets out measurements from PMC8384837.

What all share (settings): yeast three-hybrid, YBZ-1, SC-Leu-His + 0.5 mM 3-AT, 4 days
The target in test [1] is T1, PUM1 PUF domain R2-GWG N899G + Y900W + Q903G (Homo sapiens) (UniProt Q14671).
T1 sequence: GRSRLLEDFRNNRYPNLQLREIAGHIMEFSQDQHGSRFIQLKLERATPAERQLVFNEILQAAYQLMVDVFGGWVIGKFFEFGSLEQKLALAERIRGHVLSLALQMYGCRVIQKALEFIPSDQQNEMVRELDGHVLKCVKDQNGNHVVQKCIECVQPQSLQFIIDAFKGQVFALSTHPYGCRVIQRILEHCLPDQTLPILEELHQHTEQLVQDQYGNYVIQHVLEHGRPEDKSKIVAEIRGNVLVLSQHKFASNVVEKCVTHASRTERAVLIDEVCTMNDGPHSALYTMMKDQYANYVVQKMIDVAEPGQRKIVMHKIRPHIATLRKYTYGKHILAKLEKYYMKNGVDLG

Test [2] deals with T2, PUM1 PUF domain R2-LFL N899L + Y900F + Q903L (Homo sapiens) (UniProt Q14671).
T2 sequence: T1 sequence with G72L, W73F, G76L

Test [3] concerns the target T3, PUM1 PUF domain R2-LWD N899L + Y900W + Q903D (Homo sapiens) (UniProt Q14671).
T3 sequence: T1 sequence with G72L, G76D

For test [4], the target named is T4, PUM1 PUF domain R6-IFG N1043I + Y1044F + Q1047G (Homo sapiens) (UniProt Q14671).
T4 sequence: T1 sequence with G72N, W73Y, G76Q, N216I, Y217F, Q220G

In test [5] the target is T5, PUM1 PUF domain R6-IFL N1043I + Y1044F + Q1047L (Homo sapiens) (UniProt Q14671).
T5 sequence: T1 sequence with G72N, W73Y, G76Q, N216I, Y217F, Q220L

Test [6] addresses T6, PUM1 PUF domain R6-IFT N1043I + Y1044F + Q1047T (Homo sapiens) (UniProt Q14671).
T6 sequence: T1 sequence with G72N, W73Y, G76Q, N216I, Y217F, Q220T

Test [7] has as its target T7, PUM1 PUF domain R6-LFA N1043L + Y1044F + Q1047A (Homo sapiens) (UniProt Q14671).
T7 sequence: T1 sequence with G72N, W73Y, G76Q, N216L, Y217F, Q220A

Test [8] deals with T8, PUM1 PUF domain R6-LFV N1043L + Y1044F + Q1047V (Homo sapiens) (UniProt Q14671).
T8 sequence: T1 sequence with G72N, W73Y, G76Q, N216L, Y217F, Q220V

Test [9] concerns the target T9, PUM1 PUF domain R6-SRQ N1043S + Y1044R (Homo sapiens) (UniProt Q14671).
T9 sequence: T1 sequence with G72N, W73Y, G76Q, N216S, Y217R

Test [10] addresses T10, PUM1 PUF domain R6-VWH N1043V + Y1044W + Q1047H (Homo sapiens) (UniProt Q14671).
T10 sequence: T1 sequence with G72N, W73Y, G76Q, N216V, Y217W, Q220H

Test [11] has as its target T11, PUM1 PUF domain R6-VYC N1043V + Q1047C (Homo sapiens) (UniProt Q14671).
T11 sequence: T1 sequence with G72N, W73Y, G76Q, N216V, Q220C

For test [12], the target named is T12, PUM1 PUF domain R8-KKA N1122K + Y1123K + Q1126A (Homo sapiens) (UniProt Q14671).
T12 sequence: T1 sequence with G72N, W73Y, G76Q, N295K, Y296K, Q299A

The target in test [13] is T13, PUM1 PUF domain R8-KKV N1122K + Y1123K + Q1126V (Homo sapiens) (UniProt Q14671).
T13 sequence: T1 sequence with G72N, W73Y, G76Q, N295K, Y296K, Q299V

Test [14] deals with T14, PUM1 PUF domain R8-LYF N1122L + Q1126F (Homo sapiens) (UniProt Q14671).
T14 sequence: T1 sequence with G72N, W73Y, G76Q, N295L, Q299F

Test [15] concerns the target T15, PUM1 PUF domain R8-MYF N1122M + Q1126F (Homo sapiens) (UniProt Q14671).
T15 sequence: T1 sequence with G72N, W73Y, G76Q, N295M, Q299F

The target in test [16] is T16, PUM1 PUF domain R8-QFP N1122Q + Y1123F + Q1126P (Homo sapiens) (UniProt Q14671).
T16 sequence: T1 sequence with G72N, W73Y, G76Q, N295Q, Y296F, Q299P

Test [17] addresses T17, PUM1 PUF domain R8-RCK N1122R + Y1123C + Q1126K (Homo sapiens) (UniProt Q14671).
T17 sequence: T1 sequence with G72N, W73Y, G76Q, N295R, Y296C, Q299K

Test [18] deals with T18, PUM1 PUF domain R8-RKV N1122R + Y1123K + Q1126V (Homo sapiens) (UniProt Q14671).
T18 sequence: T1 sequence with G72N, W73Y, G76Q, N295R, Y296K, Q299V

Test [19] deals with T19, PUM1 PUF domain R8-RPR N1122R + Y1123P + Q1126R (Homo sapiens) (UniProt Q14671).
T19 sequence: T1 sequence with G72N, W73Y, G76Q, N295R, Y296P, Q299R

Test [20] deals with T20, PUM1 PUF domain R8-RSR N1122R + Y1123S + Q1126R (Homo sapiens) (UniProt Q14671).
T20 sequence: T1 sequence with G72N, W73Y, G76Q, N295R, Y296S, Q299R

Where a chain is given by its changes, count along the chain named. Some of the results follow.

As to “GGCUAGAACUAGUGGAUCCCCCGGCGCCCGGCGGCUCGAGCCCGGGUAAGUGUAAAUAGUCUGCAUGCCGCCGGGCGCCAUGCCUGCAGGUCGACUCUAGAAAACAUG”, the binding signal (log2 enrichment (interaction score)) in test [1] is 0.16; in test [2] it was -6.06; in test [3], -4.57; in test [4], -1.44; in [5], -1; in [6] it was -3.69. In addition, the binding signal (log2 enrichment (interaction score)) in test [7] was -2.29; in test [8], -1.01; in test [9], -0.69; in [10], -4.25; in [11], -0.93; in test [12], 1.55. For the same sequence, the binding signal (log2 enrichment (interaction score)) in [13] was -0.37; in test [14] it was 0.65; in [15], -0.92; in [16] it was -2.14; in test [17], 0.07; in test [18] it was -1.53. For the same sequence, the binding signal (log2 enrichment (interaction score)) in test [19] was -0.06; in [20], 0.07.
